Results reported in doi:10.1101/2024.07.16.603715.

The chains behind the UniProt entries cited, without tags or fusion partners. Where a name states a change or a piece, a line headed by the entry shows the natural chain unless it says otherwise. Residues count along the entry.
UniProt B0V2N1, residues 30-1907: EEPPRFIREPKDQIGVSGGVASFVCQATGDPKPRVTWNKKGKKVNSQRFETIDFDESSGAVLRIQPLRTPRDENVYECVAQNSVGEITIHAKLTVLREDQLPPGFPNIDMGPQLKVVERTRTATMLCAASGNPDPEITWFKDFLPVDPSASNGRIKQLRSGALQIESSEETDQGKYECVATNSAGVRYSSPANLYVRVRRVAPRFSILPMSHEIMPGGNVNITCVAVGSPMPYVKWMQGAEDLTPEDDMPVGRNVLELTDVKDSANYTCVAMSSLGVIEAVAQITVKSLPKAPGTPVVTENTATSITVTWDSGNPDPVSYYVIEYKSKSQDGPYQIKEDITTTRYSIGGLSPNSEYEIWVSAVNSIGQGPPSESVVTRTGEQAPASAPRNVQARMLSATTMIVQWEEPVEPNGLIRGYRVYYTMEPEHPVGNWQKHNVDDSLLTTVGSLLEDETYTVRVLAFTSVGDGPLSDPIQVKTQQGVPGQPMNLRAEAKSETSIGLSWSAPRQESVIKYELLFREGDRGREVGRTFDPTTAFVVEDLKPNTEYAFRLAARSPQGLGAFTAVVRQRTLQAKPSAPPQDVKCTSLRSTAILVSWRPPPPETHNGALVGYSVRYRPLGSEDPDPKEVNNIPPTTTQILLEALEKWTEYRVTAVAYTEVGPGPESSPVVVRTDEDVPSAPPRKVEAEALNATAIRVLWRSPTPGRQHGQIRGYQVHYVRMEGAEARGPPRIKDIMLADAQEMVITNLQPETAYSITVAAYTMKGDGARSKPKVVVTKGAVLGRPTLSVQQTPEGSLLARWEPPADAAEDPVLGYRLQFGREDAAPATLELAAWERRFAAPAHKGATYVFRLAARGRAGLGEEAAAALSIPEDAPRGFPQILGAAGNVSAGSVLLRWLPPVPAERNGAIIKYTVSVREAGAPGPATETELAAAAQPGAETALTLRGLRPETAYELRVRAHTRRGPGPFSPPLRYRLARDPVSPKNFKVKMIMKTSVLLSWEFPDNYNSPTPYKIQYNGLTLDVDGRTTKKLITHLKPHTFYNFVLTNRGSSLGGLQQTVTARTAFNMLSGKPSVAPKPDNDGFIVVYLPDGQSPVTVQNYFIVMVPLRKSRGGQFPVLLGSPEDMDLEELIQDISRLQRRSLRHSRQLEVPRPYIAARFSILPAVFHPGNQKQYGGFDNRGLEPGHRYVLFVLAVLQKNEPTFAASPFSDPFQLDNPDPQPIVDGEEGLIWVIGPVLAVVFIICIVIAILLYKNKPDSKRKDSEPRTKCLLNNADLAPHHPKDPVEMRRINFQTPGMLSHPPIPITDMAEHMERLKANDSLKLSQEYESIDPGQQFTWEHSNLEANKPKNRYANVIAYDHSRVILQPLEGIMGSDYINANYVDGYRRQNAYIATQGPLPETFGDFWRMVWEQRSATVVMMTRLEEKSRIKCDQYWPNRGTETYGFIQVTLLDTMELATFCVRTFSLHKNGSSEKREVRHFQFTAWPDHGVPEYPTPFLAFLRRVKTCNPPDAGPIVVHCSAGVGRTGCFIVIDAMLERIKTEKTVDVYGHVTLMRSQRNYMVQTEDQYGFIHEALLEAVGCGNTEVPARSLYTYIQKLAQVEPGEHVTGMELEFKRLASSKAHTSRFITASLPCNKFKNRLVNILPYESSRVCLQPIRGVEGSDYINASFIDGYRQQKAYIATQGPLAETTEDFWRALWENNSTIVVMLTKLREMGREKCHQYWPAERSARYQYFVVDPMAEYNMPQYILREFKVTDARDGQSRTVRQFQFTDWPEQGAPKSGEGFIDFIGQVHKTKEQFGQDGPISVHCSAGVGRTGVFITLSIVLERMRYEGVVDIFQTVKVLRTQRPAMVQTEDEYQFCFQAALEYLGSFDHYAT
UniProt P61215: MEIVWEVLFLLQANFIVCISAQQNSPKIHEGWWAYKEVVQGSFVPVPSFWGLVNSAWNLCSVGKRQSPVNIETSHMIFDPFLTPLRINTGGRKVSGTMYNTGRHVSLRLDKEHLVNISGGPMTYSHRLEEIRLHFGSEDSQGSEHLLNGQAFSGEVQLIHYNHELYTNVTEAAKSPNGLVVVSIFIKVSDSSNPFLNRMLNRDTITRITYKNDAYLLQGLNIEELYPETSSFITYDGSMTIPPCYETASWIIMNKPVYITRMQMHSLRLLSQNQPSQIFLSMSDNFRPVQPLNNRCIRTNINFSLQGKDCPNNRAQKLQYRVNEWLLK

Legend:
[1] = target: receptor protein tyrosine phosphatase S (PTPRS) (mouse (endogenous in adult mouse brain)) (UniProt B0V2N1); assay: affinity purification with mass spectrometry
[2] = target: carbonic anhydrase-related protein 10 (CAH10) (mouse (endogenous in adult mouse brain)) (UniProt P61215); assay: affinity purification with mass spectrometry

binding [1]	binding [2]	Binder
binds	binds	leucine-rich repeat transmembrane neuronal protein 1 (LRRT1) (protein, UniProt Q8K377 35-522) APSGCPGQCRCEGRLLYCEALNLTEAPHNLSGLLGLSLRYNSLSELRAGQFTGLMQLTWLYLDHNHICSVQGDAFQKLRRVKELTLSSNQITELANTTFRPMPNLRSVDLSYNKLQALAPDLFHGLRKLTTLHMRANAIQFVPVRIFQDCRSLKFLDIGYNQLKSLARNSFAGLFKLTELHLEHNDLIKVNFAHFPRLISLHSLCLRRNKVAIVVSSLDWVWNLEKMDLSGNEIEYMEPHVFETVPYLQTLQLDSNRLTYIEPRILNSWKSLTSITLAGNLWDCGRNVCALASWLSNFQGRYDANLQCASPEYAQGEDVLDAVYAFHLCEDGAEPTSGHLLSVAVTNRSDLTPPESSATTLVDGGEGHDGTFEPITVALPGGEHAENAVQIHKVVTGTMALIFSFLIVVLVLYVSWKCFPASLRQLRQCFVTQRRKQKQKQTMHQMAAMSAQEYYVDYKPNHIEGALVIINEYGSCTCHQQPARECEV
binds	binds	SHSA7 (protein, UniProt Q8C3Q5 23-558) RPSNDTSSVAPGPLPALLAHLRRLTGALAGGGSAAGTSANATKTSPASGTGAAARAPPPAELCHGYYDVMGQYDATFNCSTGSYRFCCGTCHYRFCCEHRHMRLAQASCSNYDTPRWATTPPPLAGGAGGAGGAGGGPGPGQAGWLEGGRAGGAGGRGGEGPGGSTAYVVCGVISFALAVGVGAKVAFSKASRAPRAHREINVPRALVDILRHQAGPATRPDRARSSSLTPGLGGPDSMAPRTPKNLYNTMKPSNLDNLHYNVNSPKHHAATLDWRAMPPPSPSLHYSTLSCSRSFHNLSHLPPSYEAAVKSELNRYSSLKRLAEKDLDEAYLKRRQLEMPRGTLPLHALRRPGTGGGYRMDGWGGPEELGLAPAPNPRRVMSQEHLLGDGSRASRYEFTLPRARLVSQEHLLLSSPEALRQSREHLLSPPRSPALPPDPTTRASLAASHSNLLLGPGGPPTPLHGLPPSGLHAHHHHALHGSPQPAWMSDAGGGGGTLARRPPFQRQGTLEQLQFIPGHHLPQHLRTASKNEVTV

No constants are given. Whether binding was seen depends on the method and setting. Binding seen in cells or lysates may run through a third protein. Here binding means that the protein was enriched with, or labelled near, the bait; the list need not be complete.
